Results taken from the supplement of paper PMC8728848.
The list shows a part of the results.

Key:
Assay in all cases: glycan array binding signal (z-score within array); higher = stronger binding
Conditions in all cases: glycan notation: IUPAC condensed, linker removed; mutation: D224N
[1] = target: Gal(b1-4)GlcNAc(b1-2)[Gal(b1-4)GlcNAc(b1-6)]Man(a1-6)[Gal(b1-4)GlcNAc(b1-2)Man(a1-3)]Man(b1-4)GlcNAc(b1-4)[Fuc(a1-6)]GlcNAc
How it was run: (§1)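 Columns mapping to the same glycan were averaged after glycan names were converted to IUPAC-condensed notation. The data come from 3228 arrays in the Consortium for Functional Glycomics database, limited to those with an available protein sequence. Binding is reported as a within-array Z-score averaged across arrays of one protein sequence and across linkers.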

[2] = target: Gal(b1-4)GlcNAc(b1-2)[Gal(b1-4)GlcNAc(b1-6)]Man(a1-6)[GlcNAc(b1-4)][Gal(b1-4)GlcNAc(b1-2)Man(a1-3)]Man(b1-4)GlcNAc(b1-4)GlcNAc
How it was run: as §1

[3] = target: Gal(b1-4)GlcNAc(b1-2)[Gal(b1-4)GlcNAc(b1-6)]Man(a1-6)[GlcNAc(b1-4)][Gal(b1-4)GlcNAc(b1-2)[Gal(b1-4)GlcNAc(b1-4)]Man(a1-3)]Man(b1-4)GlcNAc(b1-4)[Fuc(a1-6)]GlcNAc
How it was run: as §1

[4] = target: Gal(b1-4)GlcNAc(b1-3)Gal(b1-3)GalNAc
How it was run: as §1

[5] = target: Gal(b1-4)GlcNAc(b1-3)Gal(b1-3)GlcNAc
How it was run: as §1

[6] = target: Gal(b1-4)GlcNAc(b1-3)Gal(b1-4)Glc
How it was run: as §1

[7] = target: Gal(b1-4)GlcNAc(b1-3)Gal(b1-4)GlcNAc
How it was run: as §1

[8] = target: Gal(b1-4)GlcNAc(b1-3)Gal(b1-4)GlcNAc(b1-2)Man(a1-3)[Gal(b1-4)GlcNAc(b1-3)Gal(b1-4)GlcNAc(b1-2)Man(a1-6)]Man(b1-4)GlcNAc(b1-4)GlcNAc
How it was run: as §1

[9] = target: Gal(b1-4)GlcNAc(b1-3)Gal(b1-4)GlcNAc(b1-2)Man(a1-3)[Gal(b1-4)GlcNAc(b1-3)Gal(b1-4)GlcNAc(b1-2)Man(a1-6)]Man(b1-4)GlcNAc(b1-4)[Fuc(a1-6)]GlcNAc
How it was run: as §1

[10] = target: Gal(b1-4)GlcNAc(b1-3)Gal(b1-4)GlcNAc(b1-2)[Gal(b1-4)GlcNAc(b1-3)Gal(b1-4)GlcNAc(b1-6)]Man(a1-6)[Gal(b1-4)GlcNAc(b1-3)Gal(b1-4)GlcNAc(b1-2)Man(a1-3)]Man(b1-4)GlcNAc(b1-4)GlcNAc
How it was run: as §1

[11] = target: Gal(b1-4)GlcNAc(b1-3)Gal(b1-4)GlcNAc(b1-2)[Gal(b1-4)GlcNAc(b1-3)Gal(b1-4)GlcNAc(b1-6)]Man(a1-6)[Gal(b1-4)GlcNAc(b1-3)Gal(b1-4)GlcNAc(b1-2)Man(a1-3)]Man(b1-4)GlcNAc(b1-4)[Fuc(a1-6)]GlcNAc
How it was run: as §1

[12] = target: Gal(b1-4)GlcNAc(b1-3)Gal(b1-4)GlcNAc(b1-3)Gal(b1-4)GlcNAc
How it was run: as §1

[13] = target: Gal(b1-4)GlcNAc(b1-3)Gal(b1-4)GlcNAc(b1-3)Gal(b1-4)GlcNAc(b1-2)Man(a1-3)[Gal(b1-4)GlcNAc(b1-3)Gal(b1-4)GlcNAc(b1-3)Gal(b1-4)GlcNAc(b1-2)Man(a1-6)]Man(b1-4)GlcNAc(b1-4)GlcNAc
How it was run: as §1

[14] = target: Gal(b1-4)GlcNAc(b1-3)Gal(b1-4)GlcNAc(b1-3)Gal(b1-4)GlcNAc(b1-2)Man(a1-3)[Gal(b1-4)GlcNAc(b1-3)Gal(b1-4)GlcNAc(b1-3)Gal(b1-4)GlcNAc(b1-2)Man(a1-6)]Man(b1-4)GlcNAc(b1-4)[Fuc(a1-6)]GlcNAc
How it was run: as §1

[15] = target: Gal(b1-4)GlcNAc(b1-3)Gal(b1-4)GlcNAc(b1-3)Gal(b1-4)GlcNAc(b1-2)[Gal(b1-4)GlcNAc(b1-3)Gal(b1-4)GlcNAc(b1-3)Gal(b1-4)GlcNAc(b1-6)]Man(a1-6)[Gal(b1-4)GlcNAc(b1-3)Gal(b1-4)GlcNAc(b1-3)Gal(b1-4)GlcNAc(b1-2)Man(a1-3)]Man(b1-4)GlcNAc(b1-4)[Fuc(a1-6)]GlcNAc
How it was run: as §1

[16] = target: Gal(b1-4)GlcNAc(b1-3)Gal(b1-4)GlcNAc(b1-3)Gal(b1-4)GlcNAc(b1-3)Gal(b1-4)GlcNAc(b1-2)Man(a1-3)[Gal(b1-4)GlcNAc(b1-3)Gal(b1-4)GlcNAc(b1-3)Gal(b1-4)GlcNAc(b1-3)Gal(b1-4)GlcNAc(b1-2)Man(a1-6)]Man(b1-4)GlcNAc(b1-4)GlcNAc
How it was run: as §1

[17] = target: Gal(b1-4)GlcNAc(b1-3)Gal(b1-4)GlcNAc(b1-3)Gal(b1-4)GlcNAc(b1-3)Gal(b1-4)GlcNAc(b1-2)Man(a1-3)[Gal(b1-4)GlcNAc(b1-3)Gal(b1-4)GlcNAc(b1-3)Gal(b1-4)GlcNAc(b1-3)Gal(b1-4)GlcNAc(b1-2)Man(a1-6)]Man(b1-4)GlcNAc(b1-4)[Fuc(a1-6)]GlcNAc
How it was run: as §1

[18] = target: Gal(b1-4)GlcNAc(b1-3)Gal(b1-4)GlcNAc(b1-3)Gal(b1-4)GlcNAc(b1-3)Gal(b1-4)GlcNAc(b1-2)[Gal(b1-4)GlcNAc(b1-3)Gal(b1-4)GlcNAc(b1-3)Gal(b1-4)GlcNAc(b1-3)Gal(b1-4)GlcNAc(b1-6)]Man(a1-6)[Gal(b1-4)GlcNAc(b1-3)Gal(b1-4)GlcNAc(b1-3)Gal(b1-4)GlcNAc(b1-3)Gal(b1-4)GlcNAc(b1-2)Man(a1-3)]Man(b1-4)GlcNAc(b1-4)[Fuc(a1-6)]GlcNAc
How it was run: as §1

[19] = target: Gal(b1-4)GlcNAc(b1-3)Gal(b1-4)GlcNAc(b1-3)Gal(b1-4)GlcNAc(b1-3)Gal(b1-4)GlcNAc(b1-3)Gal(b1-4)GlcNAc(b1-2)Man(a1-3)[Gal(b1-4)GlcNAc(b1-3)Gal(b1-4)GlcNAc(b1-3)Gal(b1-4)GlcNAc(b1-3)Gal(b1-4)GlcNAc(b1-3)Gal(b1-4)GlcNAc(b1-2)Man(a1-6)]Man(b1-4)GlcNAc(b1-4)GlcNAc
How it was run: as §1

[20] = target: Gal(b1-4)GlcNAc(b1-3)Gal(b1-4)GlcNAc(b1-3)Gal(b1-4)GlcNAc(b1-3)Gal(b1-4)GlcNAc(b1-3)Gal(b1-4)GlcNAc(b1-2)Man(a1-3)[Gal(b1-4)GlcNAc(b1-3)Gal(b1-4)GlcNAc(b1-3)Gal(b1-4)GlcNAc(b1-3)Gal(b1-4)GlcNAc(b1-3)Gal(b1-4)GlcNAc(b1-2)Man(a1-6)]Man(b1-4)GlcNAc(b1-4)[Fuc(a1-6)]GlcNAc
How it was run: as §1

[21] = target: Gal(b1-4)GlcNAc(b1-3)Gal(b1-4)GlcNAc(b1-3)Gal(b1-4)GlcNAc(b1-3)Gal(b1-4)GlcNAc(b1-3)Gal(b1-4)GlcNAc(b1-2)[Gal(b1-4)GlcNAc(b1-3)Gal(b1-4)GlcNAc(b1-3)Gal(b1-4)GlcNAc(b1-3)Gal(b1-4)GlcNAc(b1-3)Gal(b1-4)GlcNAc(b1-6)]Man(a1-6)[Gal(b1-4)GlcNAc(b1-3)Gal(b1-4)GlcNAc(b1-3)Gal(b1-4)GlcNAc(b1-3)Gal(b1-4)GlcNAc(b1-3)Gal(b1-4)GlcNAc(b1-2)Man(a1-3)]Man(b1-4)GlcNAc(b1-4)[Fuc(a1-6)]GlcNAc
How it was run: as §1

[22] = target: Gal(b1-4)GlcNAc(b1-3)Gal(b1-4)GlcNAc(b1-3)Gal(b1-4)GlcNAc(b1-3)Gal(b1-4)GlcNAc(b1-3)Gal(b1-4)GlcNAc(b1-3)Gal(b1-4)GlcNAc(b1-2)Man(a1-3)[Gal(b1-4)GlcNAc(b1-3)Gal(b1-4)GlcNAc(b1-3)Gal(b1-4)GlcNAc(b1-3)Gal(b1-4)GlcNAc(b1-3)Gal(b1-4)GlcNAc(b1-3)Gal(b1-4)GlcNAc(b1-2)Man(a1-6)]Man(b1-4)GlcNAc(b1-4)GlcNAc
How it was run: as §1

[23] = target: Gal(b1-4)GlcNAc(b1-3)Gal(b1-4)GlcNAc(b1-3)GalNAc
How it was run: as §1

B1: a L Fucosidase (Thermotoga maritima) (protein)
chain: MASMKPRYKPDWESLREHTVPKWFDKAKFGIFIHWGIYSVPGWATPTGELGKVPMDAWFFQNPYAEWYENSLRIKESPTWEYHVKTYGENFEYEKFADLFTAEKWDPQEWADLFKKAGAKYVIPTTKHHDGFCLWGTKYTDFNSVKRGPKRDLVGDLAKAVREAGLRFGVYYSGGLDWRFTTEPIRYPEDLSYIRPNTYEYADYAYKQVMELVDLYLPDVLWNNMGWPEKGKEDLKYLFAYYYNKHPEGSVNDRWGVPHWDFKTAEYHVNYPGDLPGYKWEFTRGIGLSFGYNRNEGPEHMLSVEQLVYTLVDVVSKGGNLLLNVGPKGDGTIPDLQKERLLGLGEWLRKYGDAIYGTSVWERCCAKTEDGTEIRFTRKCNRIFVIFLGIPTGEKIVIEDLNLSAGTVRHFLTGERLSFKNVGKNLEITVPKKLLETDSITLVLEAVEE
B1 was tested. Which “glycan array binding signal (z-score)” value [1] did it give?
The value was 0.859.

What about the “glycan array binding signal (z-score)” value [2] of the same binder?
The value was -0.343.

What about the “glycan array binding signal (z-score)” value [3] of the same binder?
Its value is -0.733.

And the “glycan array binding signal (z-score)” value [4]?
Its value is -0.636.

And the “glycan array binding signal (z-score)” value [5]?
Its value is -0.489.

And the “glycan array binding signal (z-score)” value [6]?
Its value is -0.682.

And the “glycan array binding signal (z-score)” value [7]?
The value was -0.267.

What about the “glycan array binding signal (z-score)” value [8] of the same binder?
Its value is 0.428.

What about the “glycan array binding signal (z-score)” value [9] of the same binder?
Its value is 0.376.

And the “glycan array binding signal (z-score)” value [10]?
Its value is 1.93.

And the “glycan array binding signal (z-score)” value [11]?
The value was 0.031.

And the “glycan array binding signal (z-score)” value [12]?
The value was -0.873.

What about the “glycan array binding signal (z-score)” value [13] of the same binder?
The value was 0.166.

And the “glycan array binding signal (z-score)” value [14]?
Its value is 1.78.

What about the “glycan array binding signal (z-score)” value [15] of the same binder?
Its value is 1.64.

What about the “glycan array binding signal (z-score)” value [16] of the same binder?
Its value is 0.153.

And the “glycan array binding signal (z-score)” value [17]?
The value was 0.731.

And the “glycan array binding signal (z-score)” value [18]?
Its value is 0.606.

And the “glycan array binding signal (z-score)” value [19]?
Its value is 0.594.

And the “glycan array binding signal (z-score)” value [20]?
The value was 0.737.

And the “glycan array binding signal (z-score)” value [21]?
The value was 0.275.

And the “glycan array binding signal (z-score)” value [22]?
The value was 0.063.

What about the “glycan array binding signal (z-score)” value [23] of the same binder?
Its value is 0.922.
